Assay in all cases: two-hybrid; yeast strain Y2H Gold; RcGPXs as bait, Arabidopsis genes as prey (pGBKT7 and pGADT7 vectors); growth on SD-Trp-Leu-His solid media, SD-Trp-Leu as control; empty vectors as negative control
In assay [1] the target is Rhodiola crenulata glutathione peroxidase RcGPX7 (Rhodiola crenulata).
Assay [2] concerns the target Rhodiola crenulata glutathione peroxidase RcGPX5 (Rhodiola crenulata).
The target of assay [3] is Rhodiola crenulata glutathione peroxidase RcGPX8 (Rhodiola crenulata).
Assay [4] deals with Rhodiola crenulata glutathione peroxidase RcGPX2 (Rhodiola crenulata).
Assay [5] deals with Rhodiola crenulata glutathione peroxidase RcGPX4 (Rhodiola crenulata).

Results are given in words; binding and its absence hold for the method and conditions named. Binding calls can cover weak binding; strength is not graded here.

The results in this text go back to article PMC6274781.

B1: AtACS9 (protein, UniProt Q9M2Y8 1-470)
chain: MKQLSRKVTSNAHGQDSSYFLGWEEYEKNPYDEIKNPNGIIQMGLAENQLCFDLIETWLAKNPDAAGLKKDGQSIFKELALFQDYHGLPEFKKALAEFMEEIRGNRVTFDPSKIVLAAGSTSANETLMFCLAEPGDAFLLPTPYYPGFDRDLKWRTGAEIVPIHCSSSNGFQITESALQQAYQQAQKLDLKVKGVLVTNPSNPLGTMLTRRELNLLVDFITSKNIHLISDEIYSGTVFGFEQFVSVMDVLKDKNLENSEVSKRVHIVYSLSKDLGLPGFRVGAIYSNDEMVVSAATKMSSFGLVSSQTQYLLSALLSDKKFTSTYLDENQKRLKIRQKKLVSGLEAAGITCLKSNAGLFCWVDMRHLLDTNTFEAELELWKKIVYDVKLNISPGSSCHCTEPGWFRVCFANMSEDTLDLAMKRLKEYVESTDSRRVISKSSHDRIKSLRKRTVSNWVFRVSWTDRVPDER
Consider B1, for which the binding result in assay [1], in assay [2], in assay [3], in assay [4] and in assay [5] was “no binding” in each case.

B2: AtACS6 (protein, UniProt Q9SAR0 1-495)
chain: MVAFATEKKQDLNLLSKIASGDGHGENSSYFDGWKAYEENPFHPIDRPDGVIQMGLAENQLCGDLMRKWVLKHPEASICTSEGVNQFSDIAIFQDYHGLPEFRQAVAKFMEKTRNNKVKFDPDRIVMSGGATGAHETVAFCLANPGDGFLVPTPYYPGFDRDLRWRTGVNLVPVTCHSSNGFKITVEALEAAYENARKSNIPVKGLLVTNPSNPLGTTLDRECLKSLVNFTNDKGIHLIADEIYAATTFGQSEFISVAEVIEEIEDCNRDLIHIVYSLSKDMGLPGLRVGIVYSYNDRVVQIARKMSSFGLVSSQTQHLIAKMLSDEEFVDEFIRESKLRLAARHAEITTGLDGLGIGWLKAKAGLFLWMDLRNLLKTATFDSETELWRVIVHQVKLNVSPGGSFHCHEPGWFRVCFANMDHKTMETALERIRVFTSQLEEETKPMAATTMMAKKKKKCWQSNLRLSFSDTRRFDDGFFSPHSPVPPSPLVRAQT
In the case of B2, the binding result in assay [1], in assay [2], in assay [3], in assay [4] and in assay [5] was “no binding” throughout.

B3: AtACS7 (protein, UniProt Q9STR4 1-447)
chain: MGLPLMMERSSNNNNVELSRVAVSDTHGEDSPYFAGWKAYDENPYDESHNPSGVIQMGLAENQVSFDLLETYLEKKNPEGSMWGSKGAPGFRENALFQDYHGLKTFRQAMASFMEQIRGGKARFDPDRIVLTAGATAANELLTFILADPNDALLVPTPYYPGFDRDLRWRTGVKIVPIHCDSSNHFQITPEALESAYQTARDANIRVRGVLITNPSNPLGATVQKKVLEDLLDFCVRKNIHLVSDEIYSGSVFHASEFTSVAEIVENIDDVSVKERVHIVYSLSKDLGLPGFRVGTIYSYNDNVVRTARRMSSFTLVSSQTQHMLASMLSDEEFTEKYIRINRERLRRRYDTIVEGLKKAGIECLKGNAGLFCWMNLGFLLEKKTKDGELQLWDVILKELNLNISPGSSCHCSEVGWFRVCFANMSENTLEIALKRIHEFMDRRRRF
Take B3: the binding result in assay [1], in assay [2], in assay [3], in assay [4] and in assay [5] was “no binding” each time.

B4: AtCML38 (calmodulin gene) (protein, UniProt Q9SRE6 1-177)
chain: MKNNTQPQSSFKKLCRKLSPKREDSAGEIQQHNSSNGEDKNRELEAVFSYMDANRDGRISPEELQKSFMTLGEQLSDEEAVAAVRLSDTDGDGMLDFEEFSQLIKVDDEEEKKMELKGAFRLYIAEGEDCITPRSLKMMLKKLGESRTTDDCRVMISAFDLNADGVLSFDEFALMMR
Regarding B4, the binding result in assay [1] is “binds”; in assay [2] it was “binds”; in assay [3] it was “no binding”; in assay [4], “binds”; in assay [5], “binds”.

B5: AtTrx4 (protein, UniProt Q39239 1-119)
chain: MAAEEGQVIGCHTNDVWTVQLDKAKESNKLIVIDFTASWCPPCRMIAPIFNDLAKKFMSSAIFFKVDVDELQSVAKEFGVEAMPTFVFIKAGEVVDKLVGANKEDLQAKIVKHTGVTTA
On to B5, for which the binding result was “no binding” in assay [1]; “binds” in assay [2]; “no binding” in assay [3]; “no binding” in assay [4]; “no binding” in assay [5].

B6: AtTrxf2 (protein, UniProt Q9XFH9 1-185)
chain: MPLSLRLAPSPTSFRYSPITSTGAGGFSPVKQHCRIPNSGVATKIGFCSGGGGVLDSGRRIGSCVVRCSLETVNVTVGQVTEVDKDTFWPIVKAAGDKIVVLDMYTQWCGPCKVIAPKYKELSEKYQDMVFLKLDCNQDNKPLAKELGIRVVPTFKILKDNKVVKEVTGAKYEDLLAAIEAARSG
On to B6, for which the binding result in assay [2] and in assay [3] was “binds” in each case.

B7: AtTrxm2 (protein, UniProt Q9SEU8 1-186)
chain: MAAFTCTSRPPISLRSETRIVSSSPSASSLSSRRMFAVLPESSGLRIRLSLSPASLTSIHQPRVSRLRRAVVCEAQETTTDIQVVNDSTWDSLVLKATGPVVVDFWAPWCGPCKMIDPLVNDLAQHYTGKIKFYKLNTDESPNTPGQYGVRSIPTIMIFVGGEKKDTIIGAVPKTTLTSSLDKFLP
Take B7: the binding result in assay [1], in assay [2], in assay [3], in assay [4] and in assay [5] was “binds” throughout.

B8: AtTrxm3 (protein, UniProt Q9SEU7 1-173)
chain: MAISSSSSSICFNPTRFHTARHISSPSRLFPVTSFSPRSLRFSDRRSLLSSSASRLRLSPLCVRDSRAAEVTQRSWEDSVLKSETPVLVEFYTSWCGPCRMVHRIIDEIAGDYAGKLNCYLLNADNDLPVAEEYEIKAVPVVLLFKNGEKRESIMGTMPKEFYISAIERVLNS
Consider B8, for which the binding result is “binds” in assay [1]; “no binding” in assay [2]; “no binding” in assay [3]; “no binding” in assay [4]; “no binding” in assay [5].

B9: AtTrxh7 (protein, UniProt Q9XIF4 1-129)
chain: MGSNVSSVHDVHSSMEITSNGFVVEIESRRQWKSLFDSMKGSNKLLVIDFTAVWCGPCKAMEPRVREIASKYSEAVFARVDVDRLMDVAGTYRAITLPAFVFVKRGEEIDRVVGAKPDELVKKIEQHRV
Consider B9, for which the binding entry in assay [1] is “no binding”; in assay [2], “binds”; in assay [3] it was “no binding”; in assay [4], “no binding”; in assay [5], “no binding”.

B10: AtACS2 (protein, UniProt Q06402 1-496)
chain: MGLPGKNKGAVLSKIATNNQHGENSEYFDGWKAYDKDPFHLSRNPHGIIQMGLAENQLCLDLIKDWVKENPEASICTLEGIHQFSDIANFQDYHGLKKFRQAIAHFMGKARGGRVTFDPERVVMSGGATGANETIMFCLADPGDVFLIPSPYYAAFDRDLRWRTGVEIIPVPCSSSDNFKLTVDAAEWAYKKAQESNKKVKGLILTNPSNPLGTMLDKDTLTNLVRFVTRKNIHLVVDEIYAATVFAGGDFVSVAEVVNDVDISEVNVDLIHIVYSLSKDMGLPGFRVGIVYSFNDSVVSCARKMSSFGLVSSQTQLMLASMLSDDQFVDNFLMESSRRLGIRHKVFTTGIKKADIACLTSNAGLFAWMDLRHLLRDRNSFESEIELWHIIIDRVKLNVSPGSSFRCTEPGWFRICFANMDDDTLHVALGRIQDFVSKNKNKIVEKASENDQVIQNKSAKKLKWTQTNLRLSFRRLYEDGLSSPGIMSPHSPLLRA
As to B10, the binding entry in assay [1], in assay [2], in assay [3], in assay [4] and in assay [5] was “no binding” each time.

B11: AtACO1 (protein, UniProt Q9ZUN4 1-310)
chain: MVLIKEREMEIPVIDFAELDGEKRSKTMSLLDHACDKWGFFMVDNHGIDKELMEKVKKMINSHYEEHLKEKFYQSEMVKALSEGKTSDADWESSFFISHKPTSNICQIPNISEELSKTMDEYVCQLHKFAERLSKLMCENLGLDQEDIMNAFSGPKGPAFGTKVAKYPECPRPELMRGLREHTDAGGIILLLQDDQVPGLEFFKDGKWVPIPPSKNNTIFVNTGDQLEILSNGRYKSVVHRVMTVKHGSRLSIATFYNPAGDAIISPAPKLLYPSGYRFQDYLKLYSTTKFGDKGPRLETMKKMGNADSA
On to B11, for which the binding entry in assay [1], in assay [2], in assay [3], in assay [4] and in assay [5] was “no binding” in each case.

B12: AtNAC102, NAC (NAM/ATAF/CUC transcription factor) family member (protein, UniProt Q8H115 1-312)
chain: MDFALFSSISIFEINHKDPPIRRFIKTQNRILSTRKQQGTFPKMKAELNLPAGFRFHPTDEELVKFYLCRRCASEPINVPVIAEIDLYKFNPWELPEMALYGEKEWYFFSHRDRKYPNGSRPNRAAGTGYWKATGADKPIGKPKTLGIKKALVFYAGKAPKGIKTNWIMHEYRLANVDRSASTNKKNNLRLDDWVLCRIYNKKGTMEKYLPAAAEKPTEKMSTSDSRCSSHVISPDVTCSDNWEVESEPKWINLEDALEAFNDDTSMFSSIGLLQNDAFVPQFQYQSSDFVDSFQDPFEQKPFLNWNFAPQG
With B12, the binding entry in assay [1] is recorded as “no binding”; in assay [2], “binds”; in assay [3] it was “no binding”; in assay [4] it was “no binding”; in assay [5], “no binding”.
